Measurements: PubChem BioAssay AID1487 (National Center for Advancing Translational Sciences (NCATS), 2009)
This is one part of the list. The main result of the screen is listed elsewhere. These columns were measured beside it and carry no call. The list favours compounds with an active or inconclusive main result. The note in brackets gives the kind of curve behind each potency; many fits are weak.

Experiment: qHTS Assay for Modulators of Lamin A Splicing
Conditions: HeLa LMNA splicing GFP/RFP minigene ratio, 48 h
Method in brief: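 Read-out is the ratio of GFP to DsRed2 object intensity, acquired by 488 nm laser-scanning cytometry on HeLa lamin A-EGFP minigene reporter cells. Compound incubation 48 hrs at 37 °C in Opti-MEM with 2% FBS; DMSO 0.5% final.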

[1] = measured here: RFP viability control channel
[2] = measured here: GFP splicing reporter channel

Row | Structure (SMILES) | AC50 [1] | AC50 [2]
1 | Cc1ccc(-n2c(=S)[nH]c3c(oc4ccccc43)c2=O)cc1C | 14.1 µM [rising, partial curve, poor fit] | –
2 | CC(C)CCNC(=O)c1ccc(Cl)c(N)c1 | 39.8 µM [rising, partial curve, poor fit] | –
3 | COc1ccc(CNC(=O)CSc2nnc(C)n2-c2ccc(F)cc2)cc1 | 14.1 µM [rising, single point] | 3.98 µM [rising, single point]
4 | COc1ccc(-c2coc3cc(OC)cc(O)c3c2=O)cc1 | – | 5.62 µM [rising, partial curve, poor fit]
5 | Cc1ccc[n+](CC(=O)c2ccc(NC(=O)c3ccccc3)cc2)c1 | 20 µM [rising, single point] | –
6 | COc1ccc(NC(=S)NCCSc2ccc(Cl)cc2)c(OC)c1 | 20 µM [rising, single point] | –
7 | Cc1nc(NC(=O)c2ccccc2)sc1-c1csc(N)n1 | 0.224 µM [falling, full curve, poor fit] | –
8 | COc1ccc(CNC(=O)Cn2c(=O)c3cccn3c3ccccc32)cc1 | – | 3.98 µM [falling, full curve, poor fit]
9 | CCc1[nH]nc2c1C(c1ccc(Br)s1)C(C#N)=C(N)O2 (stereo not drawn) | 14.1 µM [falling, partial curve] | 28.2 µM [falling, single point]
10 | Cc1ccc(SC(C)C(=O)Nc2ccncc2)cc1 (stereo not drawn) | 17.8 µM [rising, partial curve] | –
11 | CCOC(=O)c1c(NC(=O)CNC2CCCc3ccccc32)sc(C(N)=O)c1C (stereo not drawn) | 17.8 µM [falling, partial curve, poor fit] | 22.4 µM [falling, partial curve]
12 | Cc1ccc(NS(=O)(=O)c2cccc(C(=O)N/N=C/c3c(C)nn(-c4ccccc4)c3N3CCCC3)c2)c(C)c1 | 35.5 µM [rising, single point] | –
13 | CC(C)Cn1c(=O)c2c(nc3n2CCCN3CCc2ccccc2)n(C)c1=O | 15.8 µM [rising, partial curve] | –
14 | O=C(NCc1ccccc1)NCc1cccs1 | 2.51 µM [rising, partial curve, poor fit] | 5.01 µM [rising, partial curve, poor fit]
15 | CCOC(=O)C1=C(C)NC(=S)N(C(C)=O)C1c1ccc(Cl)cc1 (stereo not drawn) | 35.5 µM [rising, single point] | –
16 | COc1ccc2c(Cl)c(-c3nnc(SCC(=O)c4ccccc4)n3C)sc2c1 | 14.1 µM [rising, single point] | –
17 | Cc1cccc(C2NC(c3cccc(C)c3)C([N+](=O)[O-])C(C)(C)C2[N+](=O)[O-])c1 (stereo not drawn) | 6.31 µM [rising, partial curve] | 6.31 µM [rising, partial curve]
18 | CCc1cccc(C)c1NC(=O)CO/N=C(\C)c1cc2ccccc2o1 | 22.4 µM [rising, partial curve] | –
19 | Cc1ccc(S(=O)(=O)N2CCN(C(=O)c3nn(C(C)C)c(=O)c4ccccc34)CC2)cc1C | 11.2 µM [rising, single point] | –

Another view of some results above.
Row	Structure (SMILES)	AC50 [1]	AC50 [2]
10	Cc1ccc(SC(C)C(=O)Nc2ccncc2)cc1 (stereo not drawn)	17.8 µM [rising, partial curve]	–
11	CCOC(=O)c1c(NC(=O)CNC2CCCc3ccccc32)sc(C(N)=O)c1C (stereo not drawn)	17.8 µM [falling, partial curve, poor fit]	22.4 µM [falling, partial curve]

(listing goes on)

Row | Structure (SMILES) | AC50 [1] | AC50 [2]
20 | Cc1ccc2[nH]c3c(N4CCCCCC4)ncnc3c2c1 | 7.94 µM [rising, single point] | 2.51 µM [rising, full curve, poor fit]
21 | CN(C)CCNC(=O)c1cccc(NS(=O)(=O)c2ccc(Cl)c(Cl)c2)c1 | 5.01 µM [falling, partial curve, poor fit] | –
22 | N#Cc1nc(N)nc(N(c2ccccc2)c2ccccc2)n1 | 35.5 µM [rising, single point] | –
23 | Cc1ccc(C)n1-c1sc2c(c1C(=O)O)CCCC2 | 7.94 µM [falling, partial curve, poor fit] | –
24 | COc1ccc(-n2nc3cc(C)c(N)c(Br)c3n2)cc1 | – | 11.2 µM [rising, partial curve]
25 | Cc1sc(NC(=O)C2CC=CCC2C(=O)O)c(C(=O)OC(C)C)c1C (stereo not drawn) | 22.4 µM [rising, single point] | –
26 | CC(C)(C)CC(=O)NC(=S)NCc1ccccc1 | 7.94 µM [rising, full curve, poor fit] | 35.5 µM [rising, partial curve, poor fit]
27 | CCc1cc2c3c(c1)C(C)CC(C)(C)N3C(=O)C2=O (stereo not drawn) | 35.5 µM [rising, single point] | –
28 | COc1ccccc1C/C(N)=N/OC(=O)c1ccc2c(c1)OCO2 | 0.00891 µM [falling, full curve, poor fit] | –
29 | Cc1cc(C)cc(NC(=O)CSc2nc3c([nH]c4ccccc43)c(=O)n2-c2ccc(F)cc2)c1 | 2.82 µM [falling, full curve] | –
30 | O=C(CSc1nnc(-c2ccccc2)c2ccccc12)NCC1CCCO1 (stereo not drawn) | 20 µM [rising, single point] | –
31 | COc1ccccc1OCC(=O)N(Cc1nc(-c2ccccc2)no1)C1CCCCC1 | 12.6 µM [rising, partial curve] | 12.6 µM [rising, single point]
32 | Cc1cc(C)cc(NS(=O)(=O)c2ccc(NC(=S)NC(=O)c3ccc(Br)o3)cc2)c1 | 31.6 µM [rising, single point] | –
33 | Clc1ccc(Nc2nc(NCCN3CCOCC3)nc(N3CCOCC3)n2)cc1 | 11.2 µM [rising, partial curve] | 11.2 µM [rising, single point]
34 | COc1cc(/C=C/C(=O)N2CCCc3ccccc32)cc(OC)c1OC | 15.8 µM [rising, partial curve] | –
35 | Cc1ccccc1NS(=O)(=O)c1cc(C(=O)NCCC2=CCCCC2)ccc1Cl | 11.2 µM [rising, partial curve] | 5.62 µM [rising, full curve, poor fit]
36 | CCc1cccc(C)c1NC(=O)c1ccc(CN2CCc3ccccc3C2)cc1 | 15.8 µM [rising, partial curve] | 7.08 µM [rising, partial curve]
37 | CS(=O)(=O)n1nc(C(=O)N2CCOCC2)nc1N | 8.91 µM [falling, partial curve] | 11.2 µM [falling, partial curve, poor fit]
38 | CCOC(=O)c1c(NC(=O)CSc2ncnc3ccccc23)sc(C)c1C | 1.26 µM [rising, full curve] | 2.24 µM [rising, full curve]

Row | Structure (SMILES) | AC50 [1] | AC50 [2]
39 | CC(C)CC(=O)NC(=S)NNC(=O)c1ccc([N+](=O)[O-])cc1 | 31.6 µM [rising, single point] | –
40 | COc1ccc(CNC(=O)CSc2n[nH]c(-c3ccc(F)cc3)n2)cc1 | – | 0.708 µM [rising, single point]
41 | COCc1c(C(=O)N2CCN(c3ccc(C(F)(F)F)cn3)CC2)oc2ccccc12 | 31.6 µM [rising, single point] | –
42 | COc1ccc(C(=O)C(c2ccccc2)N2CCOCC2)cc1 (stereo not drawn) | 6.31 µM [rising, single point] | –
43 | O=C1CC(c2ccco2)Cc2nc(N3CCc4ccccc4C3)ncc21 (stereo not drawn) | 11.2 µM [rising, single point] | 12.6 µM [rising, single point]
44 | Fc1ccc(Nc2nc(SCc3cccc(Cl)c3)nc3ccccc23)cc1 | 25.1 µM [falling, single point] | 35.5 µM [falling, single point]
45 | O=C(Cn1cc2c(n1)CCCCC2)N1CCc2ccccc21 | 12.6 µM [rising, single point] | –
46 | Cc1ccccc1CSCC(=O)NC(=O)NC(C)(C)C | 12.6 µM [rising, single point] | 14.1 µM [rising, single point]
47 | CCc1c(C)nc2ncnn2c1NCCc1ccc(OC)cc1 | 17.8 µM [falling, single point] | 14.1 µM [falling, partial curve]
48 | CC1CCCN(CCCNC(=O)c2ccc3c(c2)N(Cc2cccc(Cl)c2)C(=O)c2ccccc2S3(=O)=O)C1 (stereo not drawn) | 35.5 µM [rising, single point] | 12.6 µM [rising, partial curve, poor fit]
49 | O=[N+]([O-])c1cccc(-c2csc(Nc3ccccc3)n2)c1 | – | 0.891 µM [falling, full curve]
50 | CCCc1cc(C(=O)Nc2sc3c(c2C#N)CCC3)no1 | 31.6 µM [rising, single point] | –
51 | CCC(CC)C(=O)N1CCN(c2cccc(C)c2C)CC1 | 35.5 µM [rising, single point] | –
52 | Cc1cc(C)cc(-n2nnnc2SCC(=O)Nc2nc(-c3ccc(F)cc3)cs2)c1 | 0.355 µM [falling, single point] | –
53 | Clc1ccc(-c2nc3ccccc3nc2-c2ccccc2)cc1 | 15.8 µM [rising, partial curve] | 11.2 µM [rising, partial curve]
54 | O=C(NCCN1C(=O)S/C(=C\c2ccc(F)cc2)C1=O)c1cccc(S(=O)(=O)N2CCOCC2)c1 | 8.91 µM [rising, partial curve, poor fit] | –
55 | O=C(NN1C(=O)c2ccccc2C1=O)C1C2CCCCC21 (stereo not drawn) | 35.5 µM [rising, single point] | –
56 | O=S(=O)(c1cccc(-c2nc3ccccc3s2)c1)N1CCOCC1 | 25.1 µM [rising, single point] | 22.4 µM [rising, single point]
57 | Cc1cc(C2(c3ccc(O)c(C)c3)C(=O)Nc3ccccc32)ccc1O | 35.5 µM [falling, single point] | 22.4 µM [falling, single point]

In the list so far, 2 have a COOH group.
Row | Structure (SMILES) | AC50 [1] | AC50 [2]
23 | Cc1ccc(C)n1-c1sc2c(c1C(=O)O)CCCC2 | 7.94 µM [falling, partial curve, poor fit] | –
25 | Cc1sc(NC(=O)C2CC=CCC2C(=O)O)c(C(=O)OC(C)C)c1C (stereo not drawn) | 22.4 µM [rising, single point] | –
